Values of other authors, collected in publication PMC10859675, “Short‐chain mono‐carboxylates as negative modulators of allosteric transitions in Gloeobacter violaceus ligand‐gated ion channel, and impact of a pre‐β5 strand (Loop Ω) double mutation on crotonate, not butyrate effect” (Physiological Reports, 2024).

Tested on: GLIC ECD carboxylate‐binding pockets
Settings: co-crystal structure 3eam 4hfi; ref Bocquet et al. ([2009]) and Sauguet et al. ([2013]); cited from earlier work

| Structure (SMILES) | Presence in Inter‐SU pocket | Presence in Intra‐SU pocket |
| --- | --- | --- |
| CC(=O)O [ACET, Ethanoic acid] | ✓ | ✓ |

Same assay, conditions: co-crystal structures; ref Fourati et al. ([2020]); cited from earlier work

| Structure (SMILES) | Presence in Inter‐SU pocket | Presence in Intra‐SU pocket |
| --- | --- | --- |
| O=C(O)CC(=O)O [MALON, Propanedioic acid] | ✓ | 0 |
| O=C(O)CCCC(=O)O [GLUTAR, Pentanedioic acid] | ✓ | 0 |
| CCC(=O)O [PROPION, Propanoic acid] | ✓ | ✓ |
| C/C=C/C(=O)O [CROTON, Butenoic acid] | ✓ | 0 |
| O=C(O)CCC(=O)O [SUCCIN, Butanedioic acid] | ✓ | ✓ |
| O=C(O)/C=C/C(=O)O [FUMAR, (E)‐but‐2‐enedioic acid] | ✓ | 0 |
